Results are given in words; binding and its absence hold for the method and conditions named. Some binding calls cover weakened binding; strength is not graded here.
Legend:
[1] = target: His6-RECQ1 (human RECQ1 helicase, wild type, 649-amino acid variant) (human) (UniProt P46063); experiment: negative-stain transmission electron microscopy; unpublished data: His-tagged RECQ1 with ssDNA, and upon addition of ATP; both purified
[2] = target: His6-RECQ1 (human RECQ1 helicase, wild type, 649-amino acid variant) (human) (UniProt P46063); experiment: negative-stain transmission electron microscopy; about 15 ug/ml protein in 20 mM TrisHCl pH 7.4, 150 mM KCl, 2 mM MgCl2, 1% uranyl acetate; alone or with 1.5 molar excess oligo(dT)30, no nucleotide; single-particle 3D reconstruction without symmetry; both purified
[3] = target: untagged RECQ1 (utRECQ1; human RECQ1 helicase after removal of the N-terminal His6-tag) (human) (UniProt P46063); experiment: negative-stain transmission electron microscopy; as a2 but with 2-5 mM ATP or ATPγS, with or without oligo(dT)30; both purified

Molecule	binding [1]	binding [2]	binding [3]
His6-RECQ1 (human RECQ1 helicase, wild type, 649-amino acid variant) (from UniProt P46063 1-649) (enzyme)	binds	binds	
untagged RECQ1 (utRECQ1; human RECQ1 helicase after removal of the N-terminal His6-tag) (enzyme, UniProt P46063 1-649, looked up, human RECQ1 helicase (alias RECQL), the 649-amino acid variant; also called untagged wild-type RECQ1; source: baculovirus/Sf9 cells, purified; not shown: His6, N-terminal, cleaved) MASVSALTEELDSITSELHAVEIQIQELTERQQELIQKKKVLTKKIKQCLEDSDAGASNEYDSSPAAWNKEDFPWSGKVKDILQNVFKLEKFRPLQLETINVTMAGKEVFLVMPTGGGKSLCYQLPALCSDGFTLVICPLISLMEDQLMVLKQLGISATMLNASSSKEHVKWVHAEMVNKNSELKLIYVTPEKIAKSKMFMSRLEKAYEARRFTRIAVDEVHCCSQWGHDFRPDYKALGILKRQFPNASLIGLTATATNHVLTDAQKILCIEKCFTFTASFNRPNLYYEVRQKPSNTEDFIEDIVKLINGRYKGQSGIIYCFSQKDSEQVTVSLQNLGIHAGAYHANLEPEDKTTVHRKWSANEIQVVVATVAFGMGIDKPDVRFVIHHSMSKSMENYYQESGRAGRDDMKADCILYYGFGDIFRISSMVVMENVGQQKLYEMVSYCQNISKCRRVLMAQHFDEVWNSEACNKMCDNCCKDSAFERKNITEYCRDLIKILKQAEELNEKLTPLKLIDSWMGKGAAKLRVAGVVAPTLPREDLEKIIAHFLIQQYLKEDYSFTAYATISYLKIGPKANLLNNEAHAITMQVTKSTQNSFRAESSQTCHSEQGDKKMEEKNSGNFQKKAANMLQQSGSKNTGAKKRKIDDA			binds weakly

Reference: publication PMC1769423, “Different Quaternary Structures of Human RECQ1 Are Associated with Its Dual Enzymatic Activity” (PLoS Biology, 2007)
